{
  "sequences": {"note": "The chains behind the UniProt entries cited, without tags or fusion partners.", "UniProt K4LM89": "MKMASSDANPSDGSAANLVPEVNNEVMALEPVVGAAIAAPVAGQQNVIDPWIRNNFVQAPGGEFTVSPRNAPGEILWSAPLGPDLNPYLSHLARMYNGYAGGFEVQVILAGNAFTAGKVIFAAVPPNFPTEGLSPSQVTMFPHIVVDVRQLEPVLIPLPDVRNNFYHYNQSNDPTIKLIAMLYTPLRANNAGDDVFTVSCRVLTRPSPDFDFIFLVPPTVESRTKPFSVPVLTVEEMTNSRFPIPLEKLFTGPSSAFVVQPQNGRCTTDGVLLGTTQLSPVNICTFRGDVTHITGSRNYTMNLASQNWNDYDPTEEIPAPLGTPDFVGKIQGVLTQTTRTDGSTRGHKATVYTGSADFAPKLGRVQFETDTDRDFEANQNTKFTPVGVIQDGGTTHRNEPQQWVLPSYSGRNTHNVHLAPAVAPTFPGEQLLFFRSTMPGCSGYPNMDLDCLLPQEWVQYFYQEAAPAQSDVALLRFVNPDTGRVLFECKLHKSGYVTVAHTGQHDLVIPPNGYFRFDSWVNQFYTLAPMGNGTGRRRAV"},
  "source": "paper PMC9114320",
  "key": {"[1]": {"biological_target": "Norovirus GII.4 (Sydney2012) capsid protein VP1, assembled as virus-like particles (human norovirus GII.4 (Sydney2012)) (UniProt K4LM89)", "assay": "dynamic light scattering; untreated purified VLPs (1 mg/ml), diluted in 1 ml distilled water, intensity measurements at 25 °C; assembly of VP1 into particles; both purified"}, "[2]": {"biological_target": "Norovirus GII.4 (Sydney2012) capsid protein VP1, assembled as virus-like particles (human norovirus GII.4 (Sydney2012)) (UniProt K4LM89)", "assay": "negative stain electron microscopy; untreated purified VLPs (1 mg/ml), diluted 1:40 in distilled water, carbon coated grids, 0.75% uranyl acetate; assembly of VP1 into particles; both purified"}},
  "note": "No constants are given. Whether binding was seen depends on the method and setting. Some binding calls cover weakened binding; strength is not graded here.",
  "data": [
    {"substance": "Norovirus GII.4 (Sydney2012) capsid protein VP1, assembled as virus-like particles (from UniProt K4LM89 1-540)", "values": [
      {"measurement": "binding", "setting": "[1]", "result": "binds"},
      {"measurement": "binding", "setting": "[2]", "result": "binds"}
    ]}
  ]
}
